Source: PubChem BioAssay AID1347426 (Functional Genomics Laboratory (NCATS/FGL), 2020)
Hit rate of the full screen: of about 31,000 sequences, about 1,400 (4.5%) were called active.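 Rule for the calls: active = median seed-adjusted z-score above 1 or below -1; inactive = the rest.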 The list shows a part of the results.

assay: Novel Modifiers of Survival Motor Neuron (SMN) Protein: Gene Identification via Genome-wide siRNA Screen; details: HEK293T SMN2-luciferase reporter, siRNA knockdown, 72 h; actives lie on both sides;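 note: luminescence tracks full-length SMN protein made from the SMN2 reporter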
Outline: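 Luciferase signal, proportional to full-length SMN made from an SMN2 cDNA reporter in stable HEK293T cells, was read 72 h after siRNA reverse transfection. Values were expressed as MAD scores after non-targeting-control normalization and log10 conversion; seed analysis flagged off-targets.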

Sequence	median seed-adjusted z-score
GAUACUAUGUUACAGGAGATT against ACSS2	inactive: 0
GGGCUUUAAAUAUGAGAUUTT against GRID1	inactive: 0.66
GAUAGUGACAGGUUAAUGATT against TIGD6	inactive: -0.443
GCCGCCUACUAUUACAUCATT against SNRNP200	inactive: 0.889
GGACACCUAUGAGGAAGUATT against PCYT2	inactive: 0.217
GCAAGUAUUUUGACAAGGUTT against KIF7	inactive: 0.0274
ACAACAUGAAGGUCCUCUATT against THY1	active: -1.1
GUCUCGUAGUGUUAUGUCUTT against GBA2	inactive: 0.143
GCUACGAAAUGCUUGCUCATT against GALT	inactive: 0.484
GCUUUUGACGAAACCAAGATT against PDIA2	inactive: 0.151
ACAACGUGGUGAGAUGCAATT against LOXL1	inactive: 0.0435
GCACGUAUGUAGACGGAGATT against SETD7	inactive: -0.0831
GACCAGUUUUGAUAGUCAATT against SYT10	inactive: 0
CCGGUGAAUUUACAGACUUTT against ZW10	inactive: 0.199
GGCGAAUUCCAUACCGUUATT against NEK2	inactive: -0.276
GGCUGGAAAUCUCGCCUAUTT against ABCB4	inactive: 0
GCACCUCUACAGGAACUUUTT against TSC2	active: 1.11
GGUACUUCAUCGACCGAGATT against KCTD7	inactive: 0.484
GCCUUUUCAGGAGCGCAGATT against ACTN4	inactive: 0
GUAAGGACAUUCUACAGCATT against DHX32	inactive: -0.12
GGACCGAGGUCUUUCCAUUTT against LSM1	inactive: 0
CGACAUACCCAGACUGAUATT against TNIK	inactive: 0.154

Shown with bars between the fields: entries from further up
Sequence | median seed-adjusted z-score
GAUACUAUGUUACAGGAGATT against ACSS2 | inactive: 0
GGGCUUUAAAUAUGAGAUUTT against GRID1 | inactive: 0.66
GAUAGUGACAGGUUAAUGATT against TIGD6 | inactive: -0.443
GCCGCCUACUAUUACAUCATT against SNRNP200 | inactive: 0.889

No new results follow: an excerpt of the list.
Sequence	median seed-adjusted z-score
GCACGUAUGUAGACGGAGATT against SETD7	inactive: -0.0831
GACCAGUUUUGAUAGUCAATT against SYT10	inactive: 0

Later entries

Sequence	median seed-adjusted z-score
CCAAUGCCCAUGCAAGUGATT against ITIH5L	inactive: -0.407
GGAACUGUUUUUACAAGCATT against MKRN1	inactive: -0.496
GACCUAUCCUGGUUUUACUTT against TBXAS1	inactive: 0
CGGGUUCCGUAAAUGAAAATT against SMOC2	inactive: -0.72
CCAAGCCUCUUUCCUACAATT against GPR52	active: -1.17
CGCAGAAGAUGUACCAGUUTT against CDH22	inactive: -0.57
GCACAAGAGUGAAGCUCCUTT against BTN3A1	inactive: -0.198
CACCUGCAGUCAAUAAAAUTT against NPVF	inactive: 0.588
GCAACUCCAUGAGAAGAAATT against KCNJ8	inactive: 0.329
CACUGACCCUCAUAAUCCATT against LARS2	inactive: 0.25
GGAAGACAGUUUUUAUUUUTT against ST3GAL4	inactive: 0.245
CCAUGGACGUCAUGCUGUGTT against DRD4	inactive: -0.183
AGGAGCCUAUUAUCCCUAUTT against IRX6	inactive: -0.0329
GCACCAAGGUGAAGACCUUTT against NFKB2	inactive: -0.132
AAAUUUCCACGGUGAAAUATT against NPPB	inactive: -0.973
GCGAAGUGUUCAGACCAAATT against HEATR1	inactive: -0.115
GGUUAACGAUUAUUCGGCATT against GRID2	inactive: 0.676
UGUUCAGAAUACAAUAAUATT against CARD16	inactive: 0.57
CUACAAAGCCGUUUCUUAUTT against CLDN18	inactive: 0.000299
CCCAAGAUUAUGUUACGUATT against SMYD4	inactive: 0.272
CCAACAACUAGAUAGAUUATT against NRL	inactive: -0.352
AGACAGUCCUAGGAGCUGATT against IL11RA	inactive: -0.708

Looked up one by one from the list above (2):
Sequence	median seed-adjusted z-score
UGUUCAGAAUACAAUAAUATT against CARD16	inactive: 0.57
CGCAGAAGAUGUACCAGUUTT against CDH22	inactive: -0.57

Further records follow.

Sequence	median seed-adjusted z-score
GCCUCUGCCUGUAUCCUAATT against DQX1	inactive: -0.297
GAUUGUUGAUGGAAUUGAATT against KCNH8	inactive: 0
GAUUGAUGGGUGUAAGAAATT against SMS	inactive: 0.186
GCCAGAAAAUUGGCGACGATT against GCGR	inactive: -0.224
GGUUGUCUUCCGUCAGAUATT against MELK	inactive: -0.195
CCUCCACUACAAACCCACATT against GPR56	inactive: -0.109
GUUCUGGACCGGUUACUUUTT against MAN2B1	inactive: -0.246
UCACUAUCAGUACCCAUUATT against CHRNB1	inactive: 0.16
GAAUGAUGAUUCAUGAACATT against STX7	inactive: 0.251
CCCUGUCACUUGUCAGACATT against DHX9	inactive: -0.687
GCAGCAUAAUGAAACGUGATT against ARPM1	inactive: -0.0251
GCUAUGAUCCAGUUACUAATT against IPP	inactive: 0.298
UGUCCACUGUGCACGGGAATT against CLDN15	inactive: 0.973
CCAUACGAAAUGUAACAGATT against SRBD1	inactive: 0.169
GACAUGAAGUGGUUUUGGATT against TRIM55	inactive: -0.483
AGAGGUACGUCUACAGUAUTT against F2R	inactive: -0.392
GCUUUCGUCAAGUCAAAGATT against TIRAP	inactive: -0.431
GUAUGAACAUGCUAAUGAUTT against PDXDC1	inactive: 0.665
CAAUAUUUAAGGGAAAGUATT against IRF9	inactive: 0.114
GCAGAUACGAGUGGACAAATT against ZNF532	inactive: -0.0289
GGGAGGGCCUUGAUUUCCATT against AQP2	inactive: -0.433
CCAGCUGCCAAUUAUCUCATT against TRIM72	inactive: -0.0122

Sequence	median seed-adjusted z-score
GAGUUAUGAGUGACUAUUUTT against COG5	inactive: -0.0609
GCUCGUCCCUGAUGGAUAATT against EDN1	inactive: 0.0717
GGUAUGCUAUGAGACUAAATT against AFF3	inactive: -0.00277
GUACAACAGUUCAUCCUUATT against COG4	inactive: -0.508
GCUUCGUGAGCUUUGAUAATT against BRUNOL5	inactive: 0.333
GCAUCUGAAGACUCAGGCATT against TAZ	inactive: 0.0549
GAUUGUCAACUUGCCGGUATT against NFE2	inactive: -0.0226
GCAUAGACCUCGUGAAGGATT against B4GALNT3	inactive: -0.021
GGAGAUGUAUUGGUGAGAATT against CYP3A5	inactive: 0.0516
GUGUGGAUCUUACGGAAAATT against DDEF2	inactive: 0.438
CCCUGACAUUGAUGCGAAUTT against ZNF687	inactive: 0
UAGUGAAUGUUGCCCAAAATT against CLDN8	inactive: 0.542
CCAGGCCCAUUCUACAAUATT against PEAR1	inactive: 0.071
GACCGAAAAAUACCGCUGATT against HBM	inactive: 0
GAUUCCAAGUUCAGGAGAATT against ABCC5	inactive: 0.00533
GCAUGAACCUCACUGUGCATT against ZNF71	inactive: -0.0193
CCAUCAUCGACACACCCAATT against PRSS27	active: 1.03
GGAGAAAAGUAAACGGGCATT against SULT1C4	inactive: 0.00352
GCCGGCAGUUUCUAAAGUATT against PTDSS2	inactive: 0.0941
GAAAUUGAUAAGCAAAGUATT against TRO	active: 2.04
AACUCAGCUGGGUACCUCATT against PLA2G4D	inactive: -0.233
CGCCUGCAAUAUGCAAUCATT against CRYL1	inactive: 0.0852

Sequence	median seed-adjusted z-score
CCACCGAUGAGAUUACCUUTT against STS	inactive: -0.392
GGCCGAGGAGUAUGACUAUTT against EFS	inactive: -0.299
GGCUGAUAUGGGUCAUGAATT against TNKS	inactive: 0.193
CCCAUGACAUGCUUCGUAATT against UBE3B	inactive: 0.0972
AGAUAAUGAUUUUUCCAGATT against LPCAT1	inactive: -0.995
ACAUCUCCGAAAUCGCCUATT against SLC2A8	inactive: -0.105
CGAUCCGGGUUUCGAAAAATT against TRIO	inactive: 0.42
GGAAUUUCCCAGCUACCCATT against CCBE1	inactive: 0.964
CCGGAGAUGGAUGAAUCUATT against ICAM5	active: -1
GAGUUGAUAGGAUAGAUGATT against SEC23IP	inactive: -0.0226
GGAUUACAGCAGGUGCAGATT against MED8	active: -1.61
CAGUUCCAGAUGAACCAUATT against DHDDS	inactive: 0.0122
CAGUUAAGAUGUCACCGUATT against ZNF417	inactive: 0.0205
GACCAGAUCUUUAAUCUCATT against RGS10	inactive: 0.304
GCCCAGUCUUGAUUACUGATT against ARPM1	inactive: -0.0251
GCAUCGAAAUGGUGUAAUUTT against ASCC1	inactive: -0.00853
CCUUUAAUAUCGACCGCAATT against KCNC4	inactive: -0.433
GGGUGAGAAUGUUACAAUUTT against FUS	inactive: 0.92
GAGCUUAAGUGAAGUCCUATT against ZSCAN29	inactive: 0.193
GUGUGGAUCUGGUAAUACATT against DNM3	inactive: 0
